Test results reported in article PMC4572079.
Construct, isoform or probe ends are uncertain for at least one entry. Results from cells or extracts need not show a direct contact. For some assays here: Negatives hold for the conditions tested. For some assays here: At least one verdict was read from the data and is not stated in words by the source. Where a protein sequence is shown, tags need not be part of it.

Legend:
hnRNP F [1] = molecular target: T1, hnRNP F (UniProt Q794E4); assay: competition EMSA; conditions: excess unlabelled competitor vs N1 probe; LightShift Chemiluminescent EMSA kit, RPTC nuclear proteins; antibody 30 min on ice before probe; salt and pH not given; protein in an extract
T1 sequence (looked up, limits assumed): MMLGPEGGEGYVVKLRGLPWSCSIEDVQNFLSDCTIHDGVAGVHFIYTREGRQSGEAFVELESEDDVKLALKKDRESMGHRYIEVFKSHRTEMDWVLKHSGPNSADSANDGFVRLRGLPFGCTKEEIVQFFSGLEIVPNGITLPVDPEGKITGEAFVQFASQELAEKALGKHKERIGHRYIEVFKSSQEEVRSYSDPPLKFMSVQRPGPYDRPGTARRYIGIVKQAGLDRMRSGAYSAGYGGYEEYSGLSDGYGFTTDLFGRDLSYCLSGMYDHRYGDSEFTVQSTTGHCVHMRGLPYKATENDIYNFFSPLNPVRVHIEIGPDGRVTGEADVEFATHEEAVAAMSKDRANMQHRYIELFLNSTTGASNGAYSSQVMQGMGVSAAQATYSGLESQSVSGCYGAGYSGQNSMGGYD

hnRNP F [2] = molecular target: T1, hnRNP F; assay: EMSA supershift; conditions: anti-hnRNP F; LightShift Chemiluminescent EMSA kit, RPTC nuclear proteins; antibody 30 min on ice before probe; salt and pH not given; protein in an extract; label: biotin (probe)

Sequence | binding result (hnRNP F [1]) | binding result (hnRNP F [2])
AAGGAAGAGAGAAAAGAGGATGGATCGC (double strand) [Hnrnpf-RE (M4)] | no binding | –
AGAAAGGAAAGAGGAAGAGG (double strand) [Hnrnpf-RE (M1)] | no binding | –
AGAAAGGGGAAAGGAAGAGG (double strand) [Hnrnpf-RE (M2)] | no binding | –
AGAAAGGGGAGAAAAAGAGG (double strand) [Hnrnpf-RE (M3)] | no binding | –
AGAAAGGGGAGAGGAAGAGG (double strand) [Hnrnpf-RE (WT)] | – | binds
